Odorant receptor activation data for 29 compounds are collected here from the odorant receptor screen of Mainland et al. (2015).

The structures appear in SMILES notation. “And” between values parts separate entries of the source, which are not always exact repeats. Equal entries are not always repeated. The list shows a part of the results. Single wells; the ratio to wells without odorant was worked out here, and repeats agree poorly.

The test system of one experiment is OR2V1 clone 1718. Description: odorant receptor activation (CRE luciferase / Renilla) (fold of no-odor wells); higher = more activation. Conditions: 100 µM.
Consider `CCCCCCCOC(C)=O` [heptyl acetate], for which the odorant receptor activation was 0.801.
The compound `COc1ccccc1O` [guaiacol] came in with an odorant receptor activation of 0.839.
For `C=C(C)C1CCC2=CC(=O)CC(C)C2(C)C1` (stereo unspecified) [amyl laurate], the odorant receptor activation was 0.832.
The compound `CC(=O)OCC=C(C)CCC=C(C)C` [geranyl acetate] came in with an odorant receptor activation of 1.17.
Still for that read-out and setting: the result for `CC(=O)OC1CC2CCC1(C)C2(C)C` (stereo unspecified) [isobornyl acetate] reads 1.15; that for `CCCCCOC(C)=O` [n-amyl acetate], 0.882.
Same read-out and setting: the result for `CCCCCCOC(=O)CCC` [hexyl butyrate] reads 1.02.
On the same count and under the same terms, the result for `CCC1(O)C2(C)CCC(C2)C1(C)C` (stereo unspecified) [2-ethylfenchol] reads 0.97; that for `C=C(C)C1CC=CCC1` (stereo unspecified) [r-limonene], 0.856.
On to `CC1COCc2cc3c(cc21)C(C)(C)C(C)C3(C)C` (stereo unspecified) [galaxolide], for which the odorant receptor activation was 0.927 and 0.722.
`CCCCCCC=O` [heptaldehyde] had an odorant receptor activation of 0.922.
Same read-out and setting: under `CC(C)CC(=O)O` [isovaleric acid] stands 1.08.
Compound `CC(C)(O)CCCC1=CCC(C=O)CC1` (stereo unspecified) [lyral] yielded an odorant receptor activation of 1.15.
Same read-out and setting: under `O=C1CCCCCCCCCCCCCCO1` [pentadecalactone] stands 0.646; under `CCCCCC(=O)O` [caproic acid], 0.766; under `CCCCCCCCCCC=O` [undecanal], 1.19.
Consider `C=CCc1ccc(O)c(OC)c1` [eugenol], for which the odorant receptor activation is 1.15.
On the same count and under the same terms, the result for `CCCCCCCC=CC=O` [2-decenal] reads 1.12.
Same read-out and setting: under `CC(C)C=O` [isobutyraldehyde] stands 1.18; under `c1cnccn1` [pyrazine], 0.661.
Still for that read-out and setting: the result for `CC(C)C(=O)O` [isobutyric acid] reads 1.13.

The next experiment deals with OR2W1 D296N clone 1536. The experiment is described as above. Conditions: 100 µM.
For `COC(=O)c1ccccc1` [methyl benzoate], the odorant receptor activation was 1.4 and 1.92.
On the same count and under the same terms, the result for `CCCCCCCOC(C)=O` [heptyl acetate] reads 2.58 and 2.38; that for `COc1ccccc1O` [guaiacol], 1.22 and 1.26.
For the compound `CC(=O)OCC=C(C)CCC=C(C)C` [geranyl acetate], the odorant receptor activation was 3.15 and 3.02.
Same read-out and setting: under `CC(=O)OC1CC2CCC1(C)C2(C)C` (stereo unspecified) [isobornyl acetate] stands 1.18 and 0.921; under `CCCCCC(C)=O` [2-heptanone], 1.89 and 1.07.
`CCCCCOC(C)=O` [n-amyl acetate]: the odorant receptor activation is 1.62 and 2.19.
The same measure, in the same setting: under `CC12C=CCC1C1CCC3CC(=O)CCC3(C)C1CC2` (stereo unspecified) [androstenone] stands 0.73.
The same measure, in the same setting: under `CCCCCCOC(=O)CCC` [hexyl butyrate] stands 1.5 and 1.09.
On the same count and under the same terms, under `CCC1(O)C2(C)CCC(C2)C1(C)C` (stereo unspecified) [2-ethylfenchol] stands 0.925; under `C=C(C)C1CC=CCC1` (stereo unspecified) [r-limonene], 2.3 and 1.35 and 1.79; under `CC1COCc2cc3c(cc21)C(C)(C)C(C)C3(C)C` (stereo unspecified) [galaxolide], 1.32 and 1.5.
With `CC(C)CC(=O)O` [isovaleric acid], the odorant receptor activation was determined as 0.86.
On the same count and under the same terms, the result for `CC12C=CCC1C1CCC3=CC(=O)CCC3(C)C1CC2` (stereo unspecified) [androstadienone] reads 1.23 and 1.3; that for `CC(C)(C)c1ccc(CCC=O)cc1` [bourgeonal], 0.923; that for `O=C1CCCCCCCCCCCCCCO1` [pentadecalactone], 0.663.
For `CC1=NC(C)SC1C` (stereo unspecified), the odorant receptor activation is 0.85 and 0.868.
As for `CCCCCC(=O)O` [caproic acid], the odorant receptor activation came out at 1.1.
On the same count and under the same terms, the result for `CCCCCCCCCCC=O` [undecanal] reads 1.19; that for `O=C1CCCCC1` [Cyclohexanone], 0.791 and 1.25; that for `C=CCc1ccc(O)c(OC)c1` [eugenol], 2.1 and 1.83 and 1.49.
On the same count and under the same terms, the result for `CCCCCCCC=CC=O` [2-decenal] reads 1.3.
On to `CC(C)C=O` [isobutyraldehyde], for which the odorant receptor activation is 1.09 and 1.17.
For `c1cnccn1` [pyrazine], the odorant receptor activation was found to be 0.966.
In the case of `CC(=O)c1ccccc1` [acetophenone], the odorant receptor activation was 1.79 and 1.53.
For `CC(C)C(=O)O` [isobutyric acid], the odorant receptor activation is 1.08 and 0.933.

The subject of the next experiment is OR2W1 clone 1067. Described as above. The settings on record: 100 µM.
Turning to `CCCCCCCOC(C)=O` [heptyl acetate], the odorant receptor activation is 1.22 and 1.04.
Same read-out and setting: the result for `COc1ccccc1O` [guaiacol] reads 1.4 and 0.899.
The same measure, in the same setting: the result for `C=C(C)C1CCC2=CC(=O)CC(C)C2(C)C1` (stereo unspecified) [amyl laurate] reads 0.544; that for `CC(=O)OCC=C(C)CCC=C(C)C` [geranyl acetate], 1.09 and 1.19.
Take `CC(=O)OC1CC2CCC1(C)C2(C)C` (stereo unspecified) [isobornyl acetate]: the odorant receptor activation is 1.16 and 0.652.
Take `CC12C=CCC1C1CCC3CC(=O)CCC3(C)C1CC2` (stereo unspecified) [androstenone]: the odorant receptor activation amounted to 0.488.
On to `CCCCCCOC(=O)CCC` [hexyl butyrate], for which the odorant receptor activation was 1.36 and 1.06.
With `CCC1(O)C2(C)CCC(C2)C1(C)C` (stereo unspecified) [2-ethylfenchol], the odorant receptor activation is 1.78 and 1.59.
In the case of `CC(C)CC(=O)O` [isovaleric acid], the odorant receptor activation was 0.964 and 1.25.
On the same count and under the same terms, under `CC12C=CCC1C1CCC3=CC(=O)CCC3(C)C1CC2` (stereo unspecified) [androstadienone] stands 1.42.
In turn, `CC(C)(C)c1ccc(CCC=O)cc1` [bourgeonal] yielded an odorant receptor activation of 0.595.
`CC(C)(O)CCCC1=CCC(C=O)CC1` (stereo unspecified) [lyral] showed an odorant receptor activation of 1.02.
In turn, `O=C1CCCCCCCCCCCCCCO1` [pentadecalactone] gave an odorant receptor activation of 0.676.
Consider `CCCCCC(=O)O` [caproic acid], for which the odorant receptor activation was 1.23 and 0.863.
As for `CCCCCCCCCCC=O` [undecanal], the odorant receptor activation is 1.19 and 1.11.
`CCCCCCCC=CC=O` [2-decenal] returned an odorant receptor activation of 1.4.
As for `c1cnccn1` [pyrazine], the odorant receptor activation is 1.17 and 0.949.
Still for that read-out and setting: under `CC(C)C(=O)O` [isobutyric acid] stands 1.22 and 0.426.

Another experiment has as its system OR2W3 Indel clone 1491. The description is as above. The settings on record: 100 µM.
Regarding `COC(=O)c1ccccc1` [methyl benzoate], the odorant receptor activation was 1.13 and 0.974.
Regarding `CCCCCCCOC(C)=O` [heptyl acetate], the odorant receptor activation was 0.869 and 1.55.
Same read-out and setting: under `COc1ccccc1O` [guaiacol] stands 0.706 and 1.66; under `CC(=O)OCC=C(C)CCC=C(C)C` [geranyl acetate], 0.718 and 1.83.
For the compound `CC(=O)OC1CC2CCC1(C)C2(C)C` (stereo unspecified) [isobornyl acetate], the odorant receptor activation is 0.774 and 1.36.
Same read-out and setting: under `CCCCCC(C)=O` [2-heptanone] stands 1.04 and 0.664.
Same read-out and setting: under `CCCCCOC(C)=O` [n-amyl acetate] stands 1.07 and 0.921; under `CC12C=CCC1C1CCC3CC(=O)CCC3(C)C1CC2` (stereo unspecified) [androstenone], 0.978.
Still for that read-out and setting: under `CCCCCCOC(=O)CCC` [hexyl butyrate] stands 0.725 and 1.17; under `CCC1(O)C2(C)CCC(C2)C1(C)C` (stereo unspecified) [2-ethylfenchol], 1.08; under `C=C(C)C1CC=CCC1` (stereo unspecified) [r-limonene], 0.945 and 1.11 and 0.809.
Consider `CC1COCc2cc3c(cc21)C(C)(C)C(C)C3(C)C` (stereo unspecified) [galaxolide], for which the odorant receptor activation is 8.06 and 6.87.
On the same count and under the same terms, the result for `CC(C)CC(=O)O` [isovaleric acid] reads 0.872.
The same measure, in the same setting: the result for `CC12C=CCC1C1CCC3=CC(=O)CCC3(C)C1CC2` (stereo unspecified) [androstadienone] reads 0.889 and 1.62; that for `CC(C)(C)c1ccc(CCC=O)cc1` [bourgeonal], 1.05.
For the compound `O=C1CCCCCCCCCCCCCCO1` [pentadecalactone], the odorant receptor activation came out at 0.841.
The same measure, in the same setting: under `CC1=NC(C)SC1C` (stereo unspecified) stands 0.981 and 0.98; under `CCCCCC(=O)O` [caproic acid], 1.09.
`CCCCCCCCCCC=O` [undecanal] gave an odorant receptor activation of 0.968.
On to `O=C1CCCCC1` [Cyclohexanone], for which the odorant receptor activation was 1.07 and 0.913.
Same read-out and setting: under `C=CCc1ccc(O)c(OC)c1` [eugenol] stands 2.17 and 0.859 and 1.26; under `CCCCCCCC=CC=O` [2-decenal], 1.63; under `CC(C)C=O` [isobutyraldehyde], 0.783 and 1.56.
`c1cnccn1` [pyrazine] gave an odorant receptor activation of 0.635.
On to `CC(=O)c1ccccc1` [acetophenone], for which the odorant receptor activation was 1.1 and 0.568.
Regarding `CC(C)C(=O)O` [isobutyric acid], the odorant receptor activation was 0.9 and 1.45.
